About 2,100 (0.66%) of roughly 320,000 compounds were called active. The inconclusive results got no clear call from the source; some entries with a clear call stand among them for comparison. The call rests on the fitted dose curve; in most records, active means well fitted inhibition curve with a large enough effect in the signal ratio, with a control signal flat (not every such curve was filed as active); inconclusive means small, poorly fitted or top-dose-only effect, or effect the other way, or a change in a side signal; inactive means flat fitted curve, though single readings scatter; the % refers to the signal ratio. Potencies of inconclusive entries are doubtful fits and often do not repeat.
experiment: qHTS Assay for Lipid Storage Modulators in Drosophila S3 Cells; details: BODIPY lipid droplet fluorescence, 18-24 h, cells fed with added oleic acid; lipid storage change, negative = inhibition: at 46.1 µM (top of the series) unless noted
Outline: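 Drosophila S3 cells got compounds at several concentrations plus oleic acid (400 uM solution). Laser-scanning cytometry with 488 nm excitation read lipid droplets at 500-530 nm and cells at 575-640 nm. Percent activity was relative to 20 uM Triacsin C.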
On the % scale 0 is the no-effect control and ±100 the full control effect; potency means the concentration at half of the fitted maximal effect.

Row | SMILES | outcome | Potency | lipid storage change, negative = inhibition
1 | Cc1cccc(OCC(=O)Nc2ccc3c(c2)nc(CCN2CCCCC2)n3C)c1 | inactive [at 46.1 µM] |  | 
2 | O=C(CCCn1c(=O)c2sccc2n(CC(=O)OCc2ccccc2)c1=O)NCc1ccco1 |  | inconclusive: 18.4 µM [falling, single point] | 
3 | Cc1ccc(S(=O)(=O)N2CCC(=O)N(CCOCc3ccccc3)CC2)cc1 |  |  | inconclusive: -11.2%
4 | COc1ccc(OCC(=O)N(C)Cc2ccccc2)cc1 |  |  | inconclusive: 20.2%
5 | O=C(c1ccco1)N1CCN(C(=O)c2cn(-c3ccccc3)nc2-c2ccc(F)cc2)CC1 |  |  | inconclusive
6 | CCN(CC)CCCNC(=O)c1cc(-c2ccc3c(c2)OCO3)on1 |  | inconclusive: 29.1 µM [activator, single point] | 
7 | Cc1ccc(N2C(=O)C(Cl)=C(NCCO)C2=O)c(C)c1 |  | inconclusive: 23.1 µM [activator, partial curve] | 
8 | O=C(CCn1[nH]c(=O)c2ccccc2c1=O)OC1CCCCC1 |  |  | inconclusive: -22%
9 | CC1CCCN(c2ccc(C(=O)OCn3nnc4ccccc4c3=O)cc2[N+](=O)[O-])C1 (centres undefined) |  |  | inconclusive: -12.7%
10 | COc1ccc([C@H]2CC(=O)C=C(c3ccc(OC(F)(F)F)cc3)C2)cc1OC |  |  | inconclusive: -9.22%
11 | CCOc1ccc(NC(=O)NCCCSC2CCCCC2)cc1 |  | inconclusive: 6.51 µM [falling, single point] | 
12 | O=C(CCS(=O)(=O)c1ccc(Cl)cc1)Nc1nc(-c2cccnc2)cs1 |  | inconclusive: 23.1 µM [activator, single point] | 
13 | CN(C)N=C1c2cc(S(=O)(=O)N(C)C)ccc2-c2ccc(S(=O)(=O)N(C)C)cc21 | inactive [at 46.1 µM] |  | 
14 | O=S(=O)(Nc1ccon1)c1cc(Cl)ccc1Cl |  |  | inconclusive: -13.3%
15 | O=C(COC(=O)c1ncc(Cl)c(Cl)c1Cl)Nc1cccnc1Cl |  |  | inconclusive
16 | CCC1(CC)Nc2ccccc2C(=O)N1c1ccc(NC(C)=O)cc1 |  |  | inconclusive: -25.3%
17 | CCC(C)(C)C1CCC2(CC1)NC(=O)N(CC(=O)Nc1nc(-c3ccc(C)cc3)cs1)C2=O (centres undefined) |  | inconclusive: 7.31 µM [falling, partial curve, poor fit] | 
18 | O=C(Nc1c2c(nn1-c1ccc(F)cc1)CS(=O)(=O)C2)c1ccc(S(=O)(=O)N2CCOCC2)cc1 |  |  | inactive: -1.48%
19 | COc1ccc(S(=O)(=O)N2CCN(C(=O)c3oc4ccccc4c3C)CC2)cc1 |  | inconclusive: 0.092 µM [activator, full curve] | 
20 | O=C(c1ccccc1F)N1CCN(c2cnn(-c3cccc(Cl)c3)c(=O)c2Cl)CC1 |  | inconclusive: 0.0731 µM [activator, full curve, poor fit] | 
21 | Cc1ccc(Cl)cc1N1CCN(C(=O)Cc2ccc(-n3c(=O)[nH]c4ccsc4c3=O)cc2)CC1 |  | inconclusive: 0.366 µM [activator, single point] | 
22 | Nc1ncc(Br)cc1S(=O)(=O)NC1CCCCC1 | inactive [at 46.1 µM] |  | 
23 | Cc1ccc(OCC(=O)N2c3ccccc3CC2C)c([N+](=O)[O-])n1 (centres undefined) |  |  | inconclusive: 2.21%
24 | CC(=O)NC1C(=O)N=C(SCC(=O)Nc2c(C)cccc2C)NC1=O (centres undefined) |  | inconclusive: 29.1 µM [falling, single point] | 
25 | CCOc1ccc(C(C(=O)NC2CCCC2)N(C(=O)c2snc(C(N)=O)c2N)c2cccc(O)c2)cc1 (centres undefined) |  | inconclusive: 29.1 µM [falling, single point] | 

Row | SMILES | outcome | Potency | lipid storage change, negative = inhibition
26 | COc1cc(CN2CCNC(=O)C2CC(=O)NCCCN2CCOCC2)cc(OC)c1 (centres undefined) |  | inconclusive: 29.1 µM [activator, single point] | 
27 | Cc1ccc(C(=O)Nc2ccc3nc(C)sc3c2)s1 |  |  | inconclusive: 167%
28 | COCCNC(=O)CC(NS(=O)(=O)c1ccc(NC(C)=O)cc1)C(C)C (centres undefined) |  | active: 5.8 µM | 
29 | CC(=O)C(=[N+]=[N-])C(=O)NCc1ccccc1 |  |  | inconclusive: -16.7%
30 | COc1ccccc1NCC(=O)n1nc(C)cc1C |  |  | inconclusive: 18.4%
31 | CC(C)c1ccc(C2(C)NC(=O)N(C(C)C(=O)Nc3ccc(N4CCOCC4)cc3)C2=O)cc1 (centres undefined) |  |  | inconclusive
32 | COc1cccc(C2=NOC(C(=O)Nc3ccc(OC)c(OC)c3)C2)c1 (centres undefined) |  | active: 11.6 µM | 
33 | O=C(Nc1ccccc1N1CCOCC1)c1cc2ccccc2o1 |  | inconclusive: 29.1 µM [falling, single point] | 
34 | Nc1c(C(=O)NCCN2CCOCC2)c2nc3ccccc3nc2n1CCc1ccccc1 |  |  | inconclusive: -17.9%
35 | O=c1c2ccccc2[nH]c(=S)n1C1CCCCC1 |  |  | inconclusive: 36.5%
36 | CCCn1c(COc2ccc(C(=O)O)cc2)nc2ccccc21 |  |  | inconclusive: 83.2%
37 | Oc1ccc(-c2[nH]ncc2-c2cccc3cccnc23)c(O)c1 |  | inconclusive: 3.66 µM [activator, full curve] | 
38 | O=S(=O)(NC1CCCC1)c1cccc(-c2nnc(-c3ccccc3)o2)c1 |  | inconclusive: 0.13 µM [rising, full curve, poor fit] | 
39 | CC(=O)Nc1c(N)c2ccccc2oc1=O |  |  | inconclusive: 17.2%
40 | O=C(Oc1cccc(NC(=O)c2ccco2)c1)c1ccc(Br)c(S(=O)(=O)N2CCCCC2)c1 |  |  | inconclusive: 47%
41 | CCOC(=O)CCNC(=O)c1ccccc1Br |  |  | inconclusive: -9.11%
42 | O=C(NCCC1CCCCN1S(=O)(=O)c1ccccc1)C(=O)NCc1cccnc1 (centres undefined) |  |  | inconclusive: 22%
43 | Nc1nnc(Cc2ccc(F)cc2)s1 |  |  | inconclusive: 0.0759%
44 | COc1cc(-c2nnc(CSc3nc4ccccc4s3)o2)cc(OC)c1OC |  |  | inconclusive: -1.21%
45 | Cc1[nH]nc(Nc2ccc(C(C)C)cc2)c1[N+](=O)[O-] |  |  | inconclusive: -7.22%
46 | CNc1ccccc(-c2ccc3cc4c(cc3n2)OCO4)c1=O |  | inconclusive: 2.06 µM [activator, partial curve] | 
47 | Cc1nnc(SCc2ccccc2Cl)n1CC1CCCO1 (centres undefined) |  | inconclusive: 29.1 µM [falling, single point] | 
48 | O=S(=O)(c1ccc(Cl)cc1)N1CCN=C1SCc1cccc(Cl)c1 |  | inconclusive: 11.6 µM [activator, partial curve] | 
49 | O=C(O)/C=C/C(=O)N1CCN(c2ccc(F)cc2)CC1 |  | inconclusive: 0.0651 µM [falling, partial curve] | 

Some of the entries so far, as comma-separated lines:
Row,SMILES,outcome,Potency,"lipid storage change, negative = inhibition"
37,Oc1ccc(-c2[nH]ncc2-c2cccc3cccnc23)c(O)c1,,"inconclusive: 3.66 µM [activator, full curve]",
38,O=S(=O)(NC1CCCC1)c1cccc(-c2nnc(-c3ccccc3)o2)c1,,"inconclusive: 0.13 µM [rising, full curve, poor fit]",
39,CC(=O)Nc1c(N)c2ccccc2oc1=O,,,inconclusive: 17.2%

Source: PubChem BioAssay AID2685 (National Center for Advancing Translational Sciences (NCATS), 2010)
